Test results taken from PMC8301222.
Results are given in words; binding and its absence hold for the method and conditions named. Binding seen in cells or lysates may run through a third protein. Some entries that bind do so weakly or less than the wild type.

Protein sequences, listed by entry. Tags and fused reporters are not part of them.
UniProt P35637: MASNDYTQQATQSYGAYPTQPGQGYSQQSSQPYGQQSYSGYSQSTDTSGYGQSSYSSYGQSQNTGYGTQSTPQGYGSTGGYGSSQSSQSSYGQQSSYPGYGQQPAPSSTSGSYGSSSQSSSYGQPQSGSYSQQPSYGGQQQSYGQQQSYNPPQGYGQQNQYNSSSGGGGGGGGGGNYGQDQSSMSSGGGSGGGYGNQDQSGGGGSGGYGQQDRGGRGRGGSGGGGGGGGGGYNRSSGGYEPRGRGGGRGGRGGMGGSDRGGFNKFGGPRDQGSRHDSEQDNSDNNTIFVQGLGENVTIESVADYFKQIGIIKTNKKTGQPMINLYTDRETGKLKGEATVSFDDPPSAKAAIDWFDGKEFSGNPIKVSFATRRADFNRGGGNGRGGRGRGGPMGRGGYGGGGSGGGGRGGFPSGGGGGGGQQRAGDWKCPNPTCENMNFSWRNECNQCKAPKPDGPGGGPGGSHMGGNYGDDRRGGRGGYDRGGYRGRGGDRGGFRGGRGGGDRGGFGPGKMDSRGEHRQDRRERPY
UniProt Q9UBN7: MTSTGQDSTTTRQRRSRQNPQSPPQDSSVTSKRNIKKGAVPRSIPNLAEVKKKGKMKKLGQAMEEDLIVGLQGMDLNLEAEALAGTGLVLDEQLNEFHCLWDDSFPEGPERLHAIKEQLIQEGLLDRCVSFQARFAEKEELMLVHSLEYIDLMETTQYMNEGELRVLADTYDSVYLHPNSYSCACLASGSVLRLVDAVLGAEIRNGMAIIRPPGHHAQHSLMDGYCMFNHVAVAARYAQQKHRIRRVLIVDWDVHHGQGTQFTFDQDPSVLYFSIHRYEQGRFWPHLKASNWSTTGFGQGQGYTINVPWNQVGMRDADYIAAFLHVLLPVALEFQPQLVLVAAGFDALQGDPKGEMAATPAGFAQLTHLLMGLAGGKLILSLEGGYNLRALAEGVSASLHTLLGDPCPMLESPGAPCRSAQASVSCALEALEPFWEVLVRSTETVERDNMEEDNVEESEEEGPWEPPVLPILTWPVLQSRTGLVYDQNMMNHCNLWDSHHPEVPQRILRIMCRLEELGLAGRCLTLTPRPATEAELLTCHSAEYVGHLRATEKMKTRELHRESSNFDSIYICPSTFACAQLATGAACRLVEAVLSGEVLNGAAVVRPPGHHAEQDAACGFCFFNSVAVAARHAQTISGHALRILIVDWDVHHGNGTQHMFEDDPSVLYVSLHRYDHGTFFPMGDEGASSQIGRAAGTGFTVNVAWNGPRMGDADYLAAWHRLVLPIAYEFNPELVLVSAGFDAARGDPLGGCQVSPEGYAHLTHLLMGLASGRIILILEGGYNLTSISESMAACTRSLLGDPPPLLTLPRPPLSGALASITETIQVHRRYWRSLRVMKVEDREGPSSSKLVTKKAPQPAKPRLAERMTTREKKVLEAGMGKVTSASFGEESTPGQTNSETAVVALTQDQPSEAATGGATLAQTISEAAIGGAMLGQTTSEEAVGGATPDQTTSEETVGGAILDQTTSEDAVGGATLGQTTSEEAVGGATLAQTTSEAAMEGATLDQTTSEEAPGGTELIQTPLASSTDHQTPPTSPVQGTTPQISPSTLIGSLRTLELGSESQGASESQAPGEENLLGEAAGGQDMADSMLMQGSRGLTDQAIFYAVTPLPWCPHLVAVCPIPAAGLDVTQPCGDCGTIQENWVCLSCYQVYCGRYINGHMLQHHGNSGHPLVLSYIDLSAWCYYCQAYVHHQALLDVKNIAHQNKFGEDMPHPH

Target: FUS (FUS RNA binding protein) (human (endogenous in HUVECs)) (UniProt P35637)
Assay: co-IP; ox-LDL-treated HUVECs lysed in non-denaturing lysis buffer; about 300 ug protein with 1 ug FUS antibody and protein A/G magnetic beads at 4 C overnight; bound proteins blotted with HDAC6 antibody; rabbit IgG as negative control; results speak of the nucleus

## histone deacetylase 6 (HDAC6) (from UniProt Q9UBN7 1-1215) (enzyme)
  binding: binds
